# Data taken from PubChem BioAssay AID720533 (National Center for Advancing Translational Sciences (NCATS), 2013).
# Where “and” joins values, the source holds several entries; their conditions need not be identical. Equal values may be shown once. In all, about 18,000 compounds went through this assay and about 750 (4.2%) were called active. The shares of active, inactive and inconclusive entries below differ from those in the screen. Calls follow the shape of the full dose curve; tested in HEK293 cells. Potencies beside an inconclusive call are fits to weak or partial responses and may not hold up. A structure can be active in one record and inactive in another.
# Assay: qHTS for Inhibitors of binding or entry into cells for Lassa Virus
# Conditions: Lassa virus pseudotyped entry inhibition, cell-based qHTS; activity change, negative = inhibition: at 49.2 µM (top of the series) unless noted
# % is scaled to controls: 0 for no effect and ±100 for the full control effect; potency is read from the fitted curve at half-maximal effect.
Compound,Potency,"activity change, negative = inhibition"
CCC(c1ccc(O)cc1)C(CC)c1ccc(O)cc1 (configuration not stated),"inconclusive: 6.31 µM [inhibitor, full curve]",
NC1(c2ccc(-c3nc4ccn5c(=O)[nH]nc5c4cc3-c3ccccc3)cc2)CCC1,"inconclusive: 15.8 µM [inhibitor, partial curve]",
CC1(CN2CCC(n3c(=O)[nH]c4ccccc43)CC2)OCc2ccccc2-n2cccc21 (configuration not stated),"inconclusive: 10 µM [inhibitor, partial curve]",
CC(C)C1C(=O)N(Cc2cn(Cc3ccco3)nn2)CCS(=O)(=O)N1Cc1ccc(-c2ccc(F)cc2)cc1 (configuration not stated),"inconclusive: 11.2 µM [inhibitor, partial curve, poor fit]",
CC(CCc1ccc(O)cc1)N1CCOc2c(O)cc(-c3nc4ccccc4s3)cc2C1 (configuration not stated),"inconclusive: 20 µM [inhibitor, single point]",
O=c1c(O)c(-c2cc(O)c(O)c(O)c2)oc2cc(O)ccc12,"inconclusive: 1.41 µM [inhibitor, full curve]",
CC(C)Oc1cccc(-n2c(CCc3c[nH]c4ccc(Br)cc34)nc3ccccc3c2=O)c1,"inconclusive: 35.5 µM [inhibitor, single point]",
Clc1ccc2c(c1)N=C(N1CCNCC1)c1ccccc1N2,"inconclusive: 22.4 µM [inhibitor, partial curve]",
C[C@H](NCCC(c1ccccc1)c1ccccc1)c1ccccc1,"inconclusive: 14.1 µM [inhibitor, single point]",
COc1ccc([C@H]2C[C@H](n3cc(C4CC4)nn3)[C@@H](O)CN2C(=O)c2cccs2)cc1,inactive,
CCCn1c(=O)c2[nH]c(-c3ccccc3)nc2n(CCC)c1=O,"inconclusive: 35.5 µM [inhibitor, single point] and inconclusive: 15.8 µM [inhibitor, single point]",
O=S1(=O)CCSCCN1Cc1ccccc1Br,inactive,
COc1ccccc1N1CCN(c2nc(CNC(=O)c3ccccc3F)nc3ccccc23)CC1,"inconclusive: 20 µM [inhibitor, partial curve, poor fit]",
COC(=O)C1=C(C)N(Cc2ccccc2)C(=NCCc2ccc(O)cc2)NC1c1ccc(Br)cc1 (configuration not stated),,inactive: -24.2% [at 8.59 µM]
COc1cccc(-c2cc3c(c(OC)c2)OCCN(Cc2ccccc2O)C3)n1,active: 5.62 µM,
CCCCCCN(CCCCCC)C(=O)Cc1c(-c2ccc(F)cc2)[nH]c2ccccc12,"inconclusive: 35.5 µM [inhibitor, partial curve, poor fit] and inconclusive: 12.6 µM [inhibitor, single point]",
COc1ccccc1C1CN(Cc2cccc(C)n2)Cc2ccccc2O1 (configuration not stated),active: 7.08 µM,
O[C@H]1C[C@H](c2ccc(Cl)cc2)N(CC2CCCCC2)C[C@H]1n1cc(C2CC2)nn1,"inconclusive: 3.15 µM [inhibitor, partial curve, poor fit]",
O=c1c(-c2ccc(O)cc2)coc2cc(O)cc(O)c12,"inconclusive: 12.6 µM [inhibitor, single point]",
CC(C)Oc1cccc(NC(=O)c2ccccc2C(F)(F)F)c1,inactive,

# 5 entries from above, arranged by formula weight, descending:
Compound,Potency,"activity change, negative = inhibition"
COc1ccc([C@H]2C[C@H](n3cc(C4CC4)nn3)[C@@H](O)CN2C(=O)c2cccs2)cc1,inactive,
NC1(c2ccc(-c3nc4ccn5c(=O)[nH]nc5c4cc3-c3ccccc3)cc2)CCC1,"inconclusive: 15.8 µM [inhibitor, partial curve]",
C[C@H](NCCC(c1ccccc1)c1ccccc1)c1ccccc1,"inconclusive: 14.1 µM [inhibitor, single point]",
Clc1ccc2c(c1)N=C(N1CCNCC1)c1ccccc1N2,"inconclusive: 22.4 µM [inhibitor, partial curve]",
CCCn1c(=O)c2[nH]c(-c3ccccc3)nc2n(CCC)c1=O,"inconclusive: 35.5 µM [inhibitor, single point] and inconclusive: 15.8 µM [inhibitor, single point]",

# The results go on.

Compound,Potency,"activity change, negative = inhibition"
COc1ccc(C2c3cc(OC)c(OC)cc3Cc3c4cc(OC)c(OC)cc4cc[n+]32)cc1OC (configuration not stated),"inconclusive: 35.5 µM [inhibitor, single point]",
CNC(=O)c1ncccc1Nc1nc(Nc2cc3c(cc2OC)CCCN3C(=O)CN(C)C)nc2[nH]ccc12,"inconclusive: 0.125 µM [inhibitor, full curve, poor fit]",
CC1(C)CN(C2CCCCC2)C(=O)[C@@H]1CC(=O)Nc1ccc(Br)cc1,inactive,
O=C1C=CC(=C(c2ccc(O)cc2)c2ccc(O)cc2)C=C1,active: 8.91 µM,
COc1cc(C[C@@H](C)N)c(OC)cc1Br,"inconclusive: 44.7 µM [inhibitor, partial curve]",
COc1cccc(C(=O)N(Cc2cc3cc4c(cc3nc2N(C)C)OCO4)CC2CCCO2)c1 (configuration not stated),inactive,
N[C@H](C(=O)O)[C@H](O)C(=O)O,"inconclusive: 12.6 µM [inhibitor, full curve]",
CCN1C(=O)NC(c2ccc(Br)cc2)C(C(=O)OC)=C1C (configuration not stated),,inactive: 3.61% [at 8.59 µM]
CC(C)c1cc2c(c(O)c1O)[C@]1(C(=O)O)CCCC(C)(C)C1CC2 (some centres not stated),"inconclusive: 35.5 µM [inhibitor, single point]",
COc1cc2c(cc1OC)-c1cc3ccc(OC)c(OC)c3c[n+]1CC2,inactive,
O=C1CCCCN1CCC(=O)N1CCOc2ccc(C(O)C3CCCCC3)cc2C1 (configuration not stated),"inconclusive: 35.5 µM [inhibitor, single point]",
COC(=O)[C@H]1[C@H]2C[C@@H]3c4[nH]c5cc(OC)ccc5c4CCN3C[C@H]2C[C@@H](OC(=O)c2cc(OC)c(OC)c(OC)c2)[C@@H]1OC,"inconclusive: 17.8 µM [inhibitor, partial curve]",
CC(C)C[C@H](NC(=O)[C@@H](O)[C@H](N)Cc1ccccc1)C(=O)O,"inconclusive: 31.6 µM [inhibitor, partial curve, poor fit]",
COc1ccccc1N1CCN(c2nc(CNC(=O)c3sc(C)nc3C)nc3ccccc23)CC1,"inconclusive: 8.91 µM [inhibitor, partial curve]",
COc1cc([C@@H]2c3cc4c(cc3[C@H](O)[C@H]3COC(=O)[C@H]23)OCO4)cc(OC)c1OC,"inconclusive: 2.51 µM [inhibitor, full curve, poor fit] and inconclusive: 2.51 µM [inhibitor, full curve]",
C=CCc1ccc(O)c(-c2ccc(O)c(CC=C)c2)c1,"inconclusive: 25.1 µM [inhibitor, single point]",
CCN(CC)CCCC(C)Nc1c2ccc(Cl)cc2nc2ccc(OC)cc12 (configuration not stated),"inconclusive: 8.91 µM [inhibitor, partial curve, poor fit]",
Cc1cccc(CNc2nc(-c3ccccc3CN(C)C)nc3ccccc23)c1,"inconclusive: 25.1 µM [inhibitor, single point]",
C/C=C1\C(=O)CC2C3CCC4=CC(=O)CC[C@]4(C)C3CC[C@]12C (some centres not stated),"inconclusive: 22.4 µM [inhibitor, single point]",
CCNC1(c2cccs2)CCCCC1=O (configuration not stated),inactive,
COC(=O)[C@H](Cc1ccccc1)N1CC=CCOc2c(Cl)cc(Cl)cc2[S+]1(=O)[O-],"inconclusive: 8.87 µM [inhibitor, single point]",

Compound,Potency,"activity change, negative = inhibition"
CC1=C(C)C(=O)C(CCCCC#CCCCC#CCO)=C(C)C1=O,"inconclusive: 14.1 µM [inhibitor, full curve] and inconclusive: 35.5 µM [inhibitor, partial curve, poor fit]",
CN1CCC(C(=O)Nc2n[nH]c3nc(-c4ccc(O)cc4)c(Br)cc23)CC1,"inconclusive: 9.96 µM [inhibitor, full curve, poor fit] and inconclusive: 19.9 µM [inhibitor, partial curve, poor fit]",
COc1cc(OC)c2nc(-c3cc4c(c(OC)c3)OCCN(Cc3cn(C)nc3C)C4)cc(C)c2c1,"inconclusive: 35.5 µM [inhibitor, single point]",
COc1cc(C(=O)O[C@@H]2CC3CC[C@]2(C)C3(C)C)ccc1O,"inconclusive: 25.1 µM [inhibitor, single point]",
CCCCC1=CC2=C(c3ccco3)C(=O)C(C)(OC(=O)c3cccs3)C(=O)C2=CO1 (configuration not stated),inactive,
COc1ccccc1N(C)c1cc2c(c3c1ccn3C)C1CCC2C1 (configuration not stated),"inconclusive: 22.3 µM [inhibitor, partial curve, poor fit]",
C=CCCOP1(=O)O[C@H](C=C)C[C@H](C=C)O1 (some centres not stated),inactive,
Cc1ccc2nc(CNC(=O)c3cc(NC(=O)c4ccccc4)cc4ncn(C5CCCC5)c34)cn2c1,inactive,
CC(C)n1nc(-c2cc3cc(O)ccc3[nH]2)c2c(N)ncnc21,active: 3.98 µM,
CC(=O)c1ccc(F)c(-c2cc(C)cc3c2OC(CNC(=O)Cc2c[nH]c4ccccc24)C3)c1 (configuration not stated),"inconclusive: 31.6 µM [inhibitor, partial curve, poor fit]",
COC(=O)C1=C(C)N(CCc2cc(OC)c(OC)c(OC)c2)C(=O)N[C@H]1c1ccc(Br)cc1,"inconclusive: 2.82 µM [inhibitor, partial curve]",
CC(C)(c1ccc(OCC2CO2)cc1)c1ccc(OCC2CO2)cc1 (configuration not stated),inactive and active: 8.91 µM,
COc1ccc(-c2c(C)cc3oc(=O)cc(-c4ccccc4)c3c2C)cc1,"inconclusive: 3.98 µM [inhibitor, full curve]",
CNCC(=O)c1ccc(O)c(O)c1,inactive,
CC(=O)OC1CCC2(C)C3=C(CCC2C1(C)C)[C@]1(C)CCC(C(C)CCC=C(C)C)[C@]1(C)CC3 (some centres not stated),inactive,
Cc1ccccc1C(=O)N1CC/C(=N\OS(=O)(=O)O)c2ccc(Cl)cc21,inactive,
COC(=O)[C@@]12Cc3ccccc3[C@H]1C[C@H](C)[C@@H](C)N2C(=O)C(F)(F)F,,inactive: -2.97% [at 8.59 µM]
COc1ccc(S(=O)(=O)N(CCO)c2ccccc2CN(C)CC=Cc2ccc(Cl)cc2)cc1,active: 11.2 µM,
c1cnc2cc3c(cc2n1)[C@@H]1CNC[C@H]3C1,inactive,
Cc1cccc2c(N3CCCC3)nc(CNS(=O)(=O)c3ccccc3Cl)nc12,"inconclusive: 17.8 µM [inhibitor, partial curve]",
